Measured data: PubChem BioAssay AID652259 (Drosophila RNAi Screening Center, 2013)
The deposit covers about 22,000 reagents; shown is a random part of those with a known target gene and a result. In the full data, 233 (1.1%) are marked active. 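Light values are raw, unnormalised plate reads; the ratio scores behind the reporter calls were not deposited.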 Names joined by + are all predicted targets of the reagent. Reagent sequences are not shown. The record does not give: the amount of reagent, the time to read-out, the dose of the treatment.

- Test: 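Identify new Wingless signalling regulators in fly cells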 (primary screen)
- Cell system: Drosophila clone 8 imaginal disc epithelial cells
- Knock-down reagent: long dsRNA against Drosophila genes
- Conditions: pathway stimulated by co-transfected Wingless expression plasmid
- Read-out: 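Firefly luciferase from a tcf-site Wingless reporter, measured alongside co-transfected Renilla luciferase that tracks transfection; pathway stimulated by a Wingless plasmid; the firefly-to-Renilla ratio is not deposited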
- Direction: firefly reporter light: higher = more Wg reporter light, before normalisation; Renilla control light: higher = more transfected or surviving cells
- Call rule: 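Strong candidates differ from their plate mean by at least two out of four per-plate statistical tests; weak candidates meet just one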
- Calls: active = candidate regulator (raises or lowers reporter); inactive = not a candidate

| target gene | dsRNA | reporter change call, replicate 1 | firefly reporter light, replicate 1 | firefly reporter light, replicate 2 | Renilla control light, replicate 1 | Renilla control light, replicate 2 | Outcome |
| --- | --- | --- | --- | --- | --- | --- | --- |
| CG8757 | DRSC11039 | – | 4610 | – | 2125 | – | inactive |
| alphaSnap | DRSC11285 | – | 3880 | – | 1317 | – | inactive |
| CG44153 | DRSC01118 | – | 16560 | – | 6730 | – | inactive |
| CG44153 | DRSC02228 | – | 14098 | – | 4538 | – | inactive |
| CG44153 | DRSC02229 | – | 2668 | 10130 | 754 | 3821 | inactive |
| CG44153 | DRSC02231 | – | 2938 | 5209 | 1356 | 3220 | inactive |
| CG44153 | DRSC02233 | – | 2393 | 7265 | 835 | 3331 | inactive |
| CG44153 | DRSC02902 | – | 2950 | 7216 | 1128 | 3697 | inactive |
| CG44153 | DRSC02903 | – | 2304 | 7664 | 1379 | 3668 | inactive |
| Sfxn2 | DRSC10718 | – | 13878 | – | 5122 | – | inactive |
| CG13284 | DRSC02256 | – | 3034 | 8873 | 1100 | 3067 | inactive |
| CG32536 + CG32537 | DRSC20074 | – | 25959 | – | 1248 | – | inactive |
| Camta | DRSC06440 | – | 2909 | 7324 | 491 | 2259 | inactive |
| Camta | DRSC06441 | – | 4147 | 10290 | 993 | 4201 | inactive |
| Camta | DRSC07272 | – | 8061 | – | 2008 | – | inactive |
| CG33191 + Pif1B | DRSC12706 | – | 2243 | – | 915 | – | inactive |
| daw | DRSC00479 | – | 11153 | – | 4378 | – | inactive |
| RpL40 | DRSC00782 | – | 3801 | 7482 | 866 | 1424 | inactive |
| CG13113 | DRSC02211 | – | 2739 | 7656 | 1328 | 3609 | inactive |
| CG13833 | DRSC14683 | – | 20953 | – | 14025 | – | inactive |
| Eig71Eh | DRSC11155 | – | 8738 | – | 4282 | – | inactive |
| Rcd4 | DRSC02597 | – | 2632 | 7952 | 900 | 2857 | inactive |
| CG9986 | DRSC16586 | – | 3244 | 5433 | 1188 | 2592 | inactive |
| Blimp-1 | DRSC10496 | – | 2234 | 10288 | 2184 | 6059 | inactive |
| CG32036 | DRSC10362 | – | 4834 | – | 1636 | – | inactive |
| ste24c + CR30461 (retired record) | DRSC05639 | – | 17746 | – | 14952 | – | inactive |
| ste24c + CR30461 (retired record) | DRSC07316 | – | 4904 | – | 1677 | – | inactive |
| CG8850 | DRSC07287 | – | 6122 | – | 2539 | – | inactive |
| CG42296 | DRSC00394 | – | 2742 | 7873 | 1213 | 2732 | inactive |
| CG11670 | DRSC14342 | – | 17130 | – | 3778 | – | inactive |
| CG33095 | DRSC14441 | – | 14688 | – | 11809 | – | inactive |
| 128up | DRSC05027 | – | 7580 | – | 2466 | – | inactive |
| Rab32 | DRSC05146 | – | 16694 | – | 8586 | – | inactive |
| Rab32 | DRSC07522 | – | 10188 | – | 1302 | – | inactive |
| Dis3 | DRSC16034 | – | 2705 | 4941 | 1082 | 1545 | inactive |
| eIF2A | DRSC11825 | – | 5222 | – | 2217 | – | inactive |
| CG11638 | DRSC18167 | – | 19596 | – | 11920 | – | inactive |
| CG11638 | DRSC18640 | – | 20236 | – | 14368 | – | inactive |
| CG31752 | DRSC22599 | – | 6.19e5 | 5.53e5 | 2.03e5 | 1.44e5 | inactive |
| Exn | DRSC09673 | – | 3451 | – | 1735 | – | inactive |
| Exn | DRSC10077 | – | 8928 | – | 2969 | – | inactive |

Just “Renilla control light, replicate 1” (7 entries from above):
Rab32 [DRSC05146]	8586
Rab32 [DRSC07522]	1302
Dis3 [DRSC16034]	1082
eIF2A [DRSC11825]	2217
CG11638 [DRSC18167]	11920
CG11638 [DRSC18640]	14368
CG31752 [DRSC22599]	2.03e5

The results go on:
| target gene | dsRNA | reporter change call, replicate 1 | firefly reporter light, replicate 1 | firefly reporter light, replicate 2 | Renilla control light, replicate 1 | Renilla control light, replicate 2 | Outcome |
| --- | --- | --- | --- | --- | --- | --- | --- |
| yellow-g | DRSC08575 | – | 6103 | – | 2779 | – | inactive |
| caup | DRSC11334 | – | 6464 | – | 1305 | – | inactive |
| Galphaf | DRSC11171 | – | 5338 | – | 2549 | – | inactive |
| CG33557 | DRSC17854 | – | 17122 | – | 8758 | – | inactive |
| CG13438 | DRSC06398 | – | 5590 | – | 2144 | – | inactive |
| msb1l | DRSC03572 | – | 6775 | – | 1464 | – | inactive |
| CG31103 | DRSC22324 | – | 3.10e5 | 3.10e5 | 1.48e5 | 1.50e5 | inactive |
| CG12926 | DRSC06239 | – | 3660 | 12000 | 1344 | 4182 | inactive |
| CG12926 | DRSC21930 | – | 3.68e5 | 3.86e5 | 1.65e5 | 1.60e5 | inactive |
| CG9109 | DRSC03139 | – | 8369 | – | 3907 | – | inactive |
| CG4607 | DRSC18375 | – | 17429 | – | 9411 | – | inactive |
| Nepl10 | DRSC07212 | – | 10263 | – | 3995 | – | inactive |
| CG7556 | DRSC20052 | – | 2106 | 6880 | 706 | 3444 | inactive |
| Prosbeta7 | DRSC12186 | – | 3035 | – | 1847 | – | inactive |
| Obp46a | DRSC06220 | – | 2819 | 7072 | 869 | 2620 | inactive |
| Ir52b | DRSC06263 | – | 4752 | – | 2097 | – | inactive |
| nrv2 | DRSC00948 | – | 16178 | – | 6832 | – | inactive |
| nrv2 | DRSC03383 | – | 11325 | – | 4277 | – | inactive |
| CG31636 | DRSC02276 | – | 2484 | 5643 | 916 | 2342 | inactive |
| HLH3B | DRSC18669 | – | 17256 | – | 12073 | – | inactive |
| CG43091 | DRSC13571 | – | 3040 | – | 1140 | – | inactive |
| Gcna | DRSC18553 | – | 2471 | 7943 | 1600 | 3642 | inactive |
| adp | DRSC06916 | – | 19068 | – | 4816 | – | inactive |
| Dnai2 | DRSC10575 | – | 6339 | – | 2196 | – | inactive |
| Gr39a | DRSC01841 | – | 13200 | – | 9749 | – | inactive |
| Gr39a | DRSC01842 | – | 15945 | – | 9928 | – | inactive |
| CG31516 | DRSC11994 | – | 2616 | – | 1033 | – | inactive |
| Exo70 | DRSC10774 | – | 1315 | 3445 | 875 | 1952 | inactive |
| CG14676 | DRSC12262 | – | 12758 | – | 2368 | – | inactive |
| CG11291 | DRSC04097 | – | 4532 | 6213 | 676 | 2561 | inactive |
| CG30087 | DRSC21677 | – | 7.81e5 | 7.79e5 | 4.09e5 | 3.73e5 | inactive |
| CG17593 | DRSC00504 | – | 2513 | 6497 | 1236 | 1973 | inactive |
| Dus2 | DRSC19591 | – | 2288 | 6336 | 1008 | 2613 | inactive |
| loqs | DRSC02997 | – | 2664 | 5316 | 1260 | 2583 | inactive |
| Uvrag | DRSC02932 | – | 14849 | – | 3963 | – | inactive |
| CG34050 (retired record) | DRSC09067 | – | 2916 | – | 563 | – | inactive |
| mTTF | DRSC01909 | – | 3205 | 6560 | 924 | 2469 | inactive |
| Slc25A46b | DRSC02888 | – | 1881 | 4948 | 933 | 2146 | inactive |
| aop | DRSC00801 | Wg reporter activity raised | 2768 | 6800 | 468 | 1155 | active |
| CG11231 (retired record) | DRSC17207 | – | 15713 | – | 12420 | – | inactive |
| CG42579 | DRSC20391 | – | 3696 | – | 1408 | – | inactive |
| CG14650 | DRSC12236 | – | 12002 | 9.29e5 | 5464 | 5.07e5 | inactive |
| CG31360 | DRSC13255 | – | 4339 | – | 2105 | – | inactive |
| dob | DRSC19948 | – | 2189 | 9958 | 1248 | 3763 | inactive |
| Ccdc114 | DRSC15025 | – | 16248 | – | 2539 | – | inactive |
| CG10333 | DRSC02036 | – | 14749 | – | 4233 | – | inactive |
| CG8369 | DRSC16413 | – | 18458 | – | 5256 | – | inactive |
| CG5790 | DRSC02896 | – | 12073 | – | 3942 | – | inactive |
| Task6 | DRSC16530 | – | 15371 | – | 3872 | – | inactive |
| CG43333 | DRSC01917 | – | 2157 | 7851 | 896 | 2387 | inactive |
| Octbeta2R | DRSC12917 | – | 5083 | – | 1408 | – | inactive |
| Octbeta2R | DRSC15350 | – | 20886 | – | 6146 | – | inactive |
| Octbeta2R | DRSC16165 | – | 14533 | – | 4096 | – | inactive |
